Source: PubChem BioAssay AID1259308 (NCATS, 2017)

- Purpose: 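Candidate targets for better recombinant protein yield in mammalian cells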 (primary screen)
- Cells: human HEK293 embryonic kidney cells stably expressing firefly luciferase (HEK-CMV-Luc2-Hygro)
- Knock-down reagent: single siRNA against human genes, 0.8 pmol siRNA per well
- Timing: 72 h
- Measurement: 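Luciferase light (ONE-Glo) measured on one replicate plate set and viability (CellTiter-Glo) on the other, scaled to a negative control siRNA, with robust z-scores and luciferase per cell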
- Direction: total luciferase, z-score and total luciferase, % of control: higher = more reporter protein produced; luciferase per cell, z-score: higher = more reporter output per viable cell; viable cells, % of control: higher = more viable cells
- Rule for the call: 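An siRNA counts as active if its total luciferase robust z-score exceeds 3; genes with two or more such siRNAs out of three were retested with fresh siRNAs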
- Calls: active = raised luciferase; inactive = no rise
Here is one part, drawn at random, of about 59,000 deposited reagents. About 1,510 of them (2.6%) count as active. 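Calls use total luciferase alone and ignore viability, so some active siRNAs may act by altering cell number.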 Entries without a mark were called inactive.

The opening 4 records as a preview:
gene,PubChem SID,"total luciferase, z-score","total luciferase, % of control","luciferase per cell, z-score","viable cells, % of control"
OPA1,SID160778380,-0.957,62.9,-0.803,86.8
OPA1,SID160778381,1.01,102,1.15,84
OPA1,SID160778382,-0.505,71.8,-0.669,95.7
LDAH,SID160747126,-2.77,26.9,-0.599,35.2

Results, from the start:
gene,PubChem SID,"total luciferase, z-score","total luciferase, % of control","luciferase per cell, z-score","viable cells, % of control"
OPA1,SID160778380,-0.957,62.9,-0.803,86.8
OPA1,SID160778381,1.01,102,1.15,84
OPA1,SID160778382,-0.505,71.8,-0.669,95.7
LDAH,SID160747126,-2.77,26.9,-0.599,35.2
LDAH,SID160747127,0.342,88.7,0.0635,97.5
LDAH,SID160747128,-0.197,78,-0.621,103
CSTF1,SID160749948,-0.429,73.4,-0.623,96.6
CSTF1,SID160749959,0.179,85.5,0.187,90.9
CSTF1,SID160749970,0.699,95.8,0.905,84.3
UPK1B,SID160718572,1.22,106,0.71,98.4
UPK1B,SID160718573,2.37,129,3.06,64.5
UPK1B,SID160718574,1.87,119,1.48,90.2
LOC391322,SID160766674,0.307,88,-0.0235,98.9
LOC391322,SID160766675,1.63,114,1.29,90.8
LOC391322,SID160766676,9.8 (active),277,4.59,92.4
KCTD5,SID160741687,3.37 (active),149,2.42,87.9
KCTD5,SID160741689,-0.917,63.7,-0.751,86.7
KCTD5,SID160741690,0.235,86.6,-0.669,115
DIP2B,SID160746400,0.682,95.5,-0.442,120
DIP2B,SID160746401,0.824,98.3,0.973,85
DIP2B,SID160746402,-0.0403,81.1,-0.658,108
SFRP5,SID160716598,-0.353,74.9,0.744,68.8
SFRP5,SID160716599,-1.04,61.1,-0.852,85.5
SFRP5,SID160716600,0.581,93.4,1.44,71.4
CDH9,SID160740576,-0.23,77.3,-0.387,95.6
CDH9,SID160740587,0.648,94.8,0.435,94.5
CDH9,SID160740597,-1,61.9,-0.82,85.9
CD164L2,SID160725204,0.295,87.8,0.682,82
CD164L2,SID160765932,-1.53,51.4,-0.622,67.7
CD164L2,SID160765933,4.11 (active),164,3.3,76.6
ARHGAP10,SID160749116,0.0925,83.7,-0.673,112
ARHGAP10,SID160749117,-0.14,79.1,-0.563,103
ARHGAP10,SID160749119,0.0604,83.1,-0.708,112
IL1R1,SID160775678,-0.75,67,-1.77,119
IL1R1,SID160775679,0.299,87.8,0.242,92.1
IL1R1,SID160775680,0.467,91.2,-0.302,110
ADGRV1,SID160732007,0.0776,83.4,-0.615,110
ADGRV1,SID160751636,-0.354,74.8,-0.803,103
ADGRV1,SID160751637,0.0825,83.5,-0.341,102
R3HDM4,SID160753937,0.118,84.2,0.737,77.5
R3HDM4,SID160753938,-0.0905,80.1,-0.371,98.7
R3HDM4,SID160753939,-0.126,79.4,0.19,84.4
YBX3,SID160720255,-1.46,52.8,-1.06,77.9
YBX3,SID160720256,-0.663,68.7,-1.29,108
YBX3,SID160732058,-1.29,56.2,-1.74,99.3
TMEM74,SID160759554,2.08,123,2.16,78
TMEM74,SID160759555,-0.547,71,-0.411,88.4
TMEM74,SID160759556,-0.534,71.3,-0.413,88.8
MRPL43,SID160724622,-0.284,76.2,-0.827,106
MRPL43,SID160752396,0.29,87.7,0.0394,96.9
MRPL43,SID160752397,-0.312,75.7,0.202,80.2
GAPT,SID160761059,0.499,91.8,0.0582,101
GAPT,SID160761060,-0.294,76,-0.361,93.4
GAPT,SID160761061,0.0203,82.3,-0.377,102
CIART,SID160758708,4.04 (active),162,2.49,94
CIART,SID160758709,-0.114,79.6,-0.199,93.8
CIART,SID160758711,-0.277,76.4,0.348,77.9
